From publication PMC4041461
For some assays here: Where cells or extracts were used, other partners may take part. For some assays here: No signal at the amounts used counts as a negative. For some assays here: At least one verdict was read from the data and is not stated in words by the source. Construct, isoform or probe ends are uncertain for at least one entry. For some assays here: A weaker result is weaker than the reference pair of the same experiment.

What was measured:
hnRNPA3 (Homo sapiens) = hnRNPA3 (Homo sapiens) (UniProt P51991); experiment: pull-down; conditions: 3' biotin; pull-down: RNA on streptavidin beads blocked in 10 mM Tris-HCl pH 7.5, 100 mM KCl, 0.1 mM EDTA, 1 mM DTT, 0.01% Triton X-100, BSA, tRNA; extract 1 h at 30 °C; protein in an extract; label: biotin
RPS5 (Homo sapiens) = RPS5 (Homo sapiens) (UniProt P46782); experiment: pull-down; conditions: 3' biotin; pull-down: RNA on streptavidin beads blocked in 10 mM Tris-HCl pH 7.5, 100 mM KCl, 0.1 mM EDTA, 1 mM DTT, 0.01% Triton X-100, BSA, tRNA; extract 1 h at 30 °C; protein in an extract; label: biotin
[1] = biological target: U2AF65 (native) (Homo sapiens) (UniProt P26368); experiment: pull-down; conditions: 3' biotin; pull-down: RNA on streptavidin beads blocked in 10 mM Tris-HCl pH 7.5, 100 mM KCl, 0.1 mM EDTA, 1 mM DTT, 0.01% Triton X-100, BSA, tRNA; extract 1 h at 30 °C; protein in an extract; label: biotin
Actin (Homo sapiens) = experiment: pull-down; conditions: 3' biotin; pull-down: RNA on streptavidin beads blocked in 10 mM Tris-HCl pH 7.5, 100 mM KCl, 0.1 mM EDTA, 1 mM DTT, 0.01% Triton X-100, BSA, tRNA; extract 1 h at 30 °C; protein in an extract; label: biotin
[2] = biological target: NAD-dependent malic enzyme, mitochondrial (ME2) (Homo sapiens) (UniProt P23368); experiment: pull-down; conditions: 3' biotin; pull-down: RNA on streptavidin beads blocked in 10 mM Tris-HCl pH 7.5, 100 mM KCl, 0.1 mM EDTA, 1 mM DTT, 0.01% Triton X-100, BSA, tRNA; extract 1 h at 30 °C; protein in an extract; label: biotin
hnRNPU (Homo sapiens) = hnRNPU (Homo sapiens) (UniProt Q00839); experiment: pull-down; conditions: 3' biotin; pull-down: RNA on streptavidin beads blocked in 10 mM Tris-HCl pH 7.5, 100 mM KCl, 0.1 mM EDTA, 1 mM DTT, 0.01% Triton X-100, BSA, tRNA; extract 1 h at 30 °C; protein in an extract; label: biotin
EFHD2 (Homo sapiens) = EFHD2 (Homo sapiens) (UniProt Q96C19); experiment: SPR; conditions: 100 nM RNA; 3' biotin; SPR: 25 °C, 1:10 mixture of binding buffer (10 mM Tris-HCl pH 7.5, 150 mM KCl) and HBS-EP (10 mM HEPES pH 7.4, 150 mM NaCl, 3 mM EDTA, 0.005% P20), protein immobilized; recombinant protein; protein details: N-terminal His-tag (pET28a); label: biotin
SRSF1 (Homo sapiens) = SRSF1 (Homo sapiens) (UniProt Q07955); experiment: SPR; conditions: 100 nM RNA; 3' biotin; SPR: 25 °C, 1:10 mixture of binding buffer (10 mM Tris-HCl pH 7.5, 150 mM KCl) and HBS-EP (10 mM HEPES pH 7.4, 150 mM NaCl, 3 mM EDTA, 0.005% P20), protein immobilized; recombinant protein; protein details: N-terminal His-tag (pET28a); label: biotin
YB-1 (Homo sapiens) = YB-1 (Homo sapiens) (UniProt P67809); experiment: pull-down; conditions: 3' biotin; pull-down: RNA on streptavidin beads blocked in 10 mM Tris-HCl pH 7.5, 100 mM KCl, 0.1 mM EDTA, 1 mM DTT, 0.01% Triton X-100, BSA, tRNA; extract 1 h at 30 °C; protein in an extract; label: biotin

Sequence | binding result (hnRNPA3 (Homo sapiens)) | binding result (RPS5 (Homo sapiens)) | binding result [1] | binding result (Actin (Homo sapiens)) | binding result [2] | binding result (hnRNPU (Homo sapiens)) | binding result (EFHD2 (Homo sapiens)) | binding result (SRSF1 (Homo sapiens)) | binding result (YB-1 (Homo sapiens))
AACGAGAGAGAGAGAGAGAGAGAGAGA [MMP16 mut] | binds | no binding | no binding | binds | no binding | no binding | binds more weakly | binds more weakly | –
AACGAGGGAGGGAGGGAGAGGGAGAGA [MMP16 GQ] | no binding | binds | binds | binds | binds | binds | binds more weakly | binds more weakly | binds
